Experimental data taken from PubChem BioAssay AID540276 (National Center for Advancing Translational Sciences (NCATS), 2011).
Out of some 300,000 compounds screened, about 5,400 (1.8%) were called active. Inconclusive results, whose numbers are uncertain, are shown with a selection of clear calls. Calls follow the shape of the full dose curve; tested in HEK293 cells. Where the call is inconclusive, the potency comes from a doubtful curve fit.

Experiment: qHTS for inhibitors of binding or entry into cells for Marburg Virus
Settings: Marburg virus pseudotyped entry inhibition, cell reporter; activity change, negative = inhibition: at 37.8 µM (top of the series) unless noted
% is scaled to controls: 0 for no effect and ±100 for the full control effect; potency is read from the fitted curve at half-maximal effect.

Q: With Cc1ccc(NP(=O)(c2ccc(N(C)C)cc2NC(=O)c2cccs2)N2CCOCC2)cc1 (stereo unspecified) as the compound, how does the Potency read?
A: Its Potency is inconclusive: 0.355 µM [activator, partial curve, poor fit].

Q: Which Potency does the source give for O=C(NC1(C(F)(F)F)N=C(c2ccccc2)N(Cc2ccccc2)C1=O)c1ccc(F)cc1 (stereo unspecified) here?
A: Its Potency is inconclusive: 10 µM [inhibitor, partial curve].

Q: With O=C(N/N=C/c1ccc[nH]1)c1ccc([N+](=O)[O-])cc1 as the compound, how does the Potency read?
A: Its Potency is inconclusive: 6.31 µM [activator, partial curve, poor fit].

Q: Which Potency does the source give for Cc1ccc([C@H]2/C(=C(\O)c3cnn(-c4ccccc4)c3C)C(=O)C(=O)N2CCN(C)C)o1 here?
A: Its Potency is inconclusive: 4.47 µM [activator, full curve, poor fit].

Q: For O=C1N/C(=C/c2cccs2)C(=O)N1Cc1ccc(F)cc1, which Potency is on record?
A: The Potency was inconclusive: 3.55 µM [activator, full curve].

Q: For COc1ccc(S(=O)(=O)N2CCCCCC2)cc1C(=O)N(C)CCOc1ccc(Cl)cc1, which Potency is on record?
A: Its Potency is inconclusive: 20 µM [inhibitor, partial curve, poor fit].

Q: For CCOC(=O)c1nc(C)n(-c2cc(Cl)ccc2Cl)n1, which Potency is on record?
A: The Potency was “inactive”.

Q: Which Potency does the source give for Cc1onc(-c2c(Cl)cccc2Cl)c1C(=O)N1CCc2ccccc21 here?
A: The Potency was inconclusive: 1.46 µM [activator, partial curve].

Q: For O=C(COC(=O)/C=C/c1ccccc1[N+](=O)[O-])Nc1ccc(OCc2ccccc2)cc1, which Potency is on record?
A: The Potency was inconclusive: 2.82 µM [activator, partial curve, poor fit].

Q: With O=C(NCC(c1ccco1)N1CCCCC1)c1ccc(S(=O)(=O)Nc2ccccc2)cc1 (stereo unspecified) as the compound, how does the Potency read?
A: The Potency was inconclusive: 12.6 µM [inhibitor, partial curve, poor fit].

Q: With O=C(CCCN1C(=O)/C(=C\c2ccco2)SC1=S)Nc1ccc2ccccc2c1 as the compound, how does the Potency read?
A: Its Potency is inconclusive: 2.82 µM [inhibitor, full curve, poor fit].

Q: For CCn1ncc(C2=NOC(C(=O)Nc3ccc4c(c3)OCO4)C2)c1C (stereo unspecified), which Potency is on record?
A: The Potency was inconclusive: 0.58 µM [inhibitor, partial curve].

Q: For CC1CCN(c2nc3ccccc3nc2SCC(=O)Nc2ccccc2C(C)C)CC1, which Potency is on record?
A: Its Potency is inconclusive: 35.5 µM [inhibitor, single point].

Q: Which Potency does the source give for C=CCc1cc(OC)ccc1OCCON1C(=O)CCC1=O here?
A: The Potency was inconclusive: 0.112 µM [inhibitor, full curve, poor fit].

Q: With O=C(CN1CCN(S(=O)(=O)c2ccccc2F)CC1)Nc1ccccc1C(=O)c1ccccc1 as the compound, how does the Potency read?
A: Its Potency is inconclusive: 29.1 µM [inhibitor, single point].

Q: With CCCn1cnc2c1c(=O)n(CCCCC(C)=O)c(=O)n2C as the compound, how does the activity change, negative = inhibition read?
A: Its activity change, negative = inhibition is inconclusive: -8.48% [inhibitor].

Q: For COCCn1c(=N)c(C(=O)NCCc2ccccc2)cc2c(=O)n3cccc(C)c3nc21, which Potency is on record?
A: Its Potency is inconclusive: 5.62 µM [inhibitor, single point].

Q: For CC(C)N(Cc1nc(-c2ccccc2)no1)C(=O)C(Cl)(Cl)Cl, which Potency is on record?
A: Its Potency is inconclusive: 10 µM [inhibitor, partial curve, poor fit].

Q: For COc1cccc(CN2C(=O)N(C(C)C)C(N(O)C(=O)NC(C)C)C2(C)C)c1OC (stereo unspecified), which Potency is on record?
A: The Potency was inconclusive: 35.5 µM [inhibitor, single point].

Q: For CC1(C)CC(=O)C(C=NCCN2CCN(C(=O)c3ccccc3)CC2)=C(O)C1, which Potency is on record?
A: Its Potency is inconclusive: 8.2 µM [activator, partial curve, poor fit].

Q: For CN1CCC(NC(=O)c2cc(-c3cccc(Br)c3)nc3ccccc23)CC1, which Potency is on record?
A: The Potency was active: 10 µM.

Q: With COc1ccc(NS(=O)(=O)c2cccc(C(=O)NNC(=O)CNC(=O)c3ccccc3F)c2)cc1 as the compound, how does the Potency read?
A: Its Potency is “inactive”.

Q: With COc1nc(N2CCOCC2)nc(C)c1[N+](=O)[O-] as the compound, how does the Potency read?
A: Its Potency is “inactive”.

Q: Which Potency does the source give for COc1ccc(-c2nnn(CC(=O)N(Cc3ccco3)C(C(=O)NCC3CCCO3)c3ccco3)n2)cc1 (stereo unspecified) here?
A: The Potency was inconclusive: 0.447 µM [activator, partial curve, poor fit].

Q: For Cc1cc(=O)[nH]c(N/N=C/c2ccc(F)cc2)n1, which Potency is on record?
A: The Potency was “inactive”.

Q: Which Potency does the source give for O=C(Nc1ccc(N2CCN(C(=O)c3ccc(Cl)cc3)CC2)cc1)c1ccc([N+](=O)[O-])o1 here?
A: The Potency was inconclusive: 3.55 µM [inhibitor, partial curve, poor fit].

Q: Which Potency does the source give for Nc1ccc2c(c1)C(=O)c1cc([N+](=O)[O-])ccc1-2 here?
A: Its Potency is “inactive”.

Q: For O=C(O)CN(CCN(CC(=O)O)CC(=O)O)CCN(CC(=O)O)CC(=O)O, which Potency is on record?
A: Its Potency is “inactive”.

Q: For CCOC(=O)c1ccc(N2C(=O)CC(Sc3nnc(C)s3)C2=O)cc1 (stereo unspecified), which Potency is on record?
A: Its Potency is “inactive”.

Q: With Cc1ccc(N(C)S(=O)(=O)c2nnc(NC(=O)c3ccco3)s2)cc1 as the compound, how does the Potency read?
A: The Potency was inconclusive: 5.62 µM [activator, single point].

Q: For CC1CCCCC1N=C1NC(C)(C)CS1 (stereo unspecified), which Potency is on record?
A: Its Potency is inconclusive: 35.5 µM [inhibitor, single point].

Q: For CN(C)c1ccc(-c2nnc(-c3cccnc3)o2)cc1, which Potency is on record?
A: Its Potency is inconclusive: 35.5 µM [inhibitor, single point].

Q: For C=CCn1c(=O)c2c3c(sc2n2c(Nc4ccc(OC)cc4)nnc12)CCCC3, which Potency is on record?
A: Its Potency is inconclusive: 12.6 µM [inhibitor, single point].

Q: For Cc1nc(SCc2ccccc2)c([N+](=O)[O-])[nH]1, which Potency is on record?
A: The Potency was inconclusive: 3.55 µM [inhibitor, single point].

Q: Which Potency does the source give for COc1ccc(NC(=O)CSc2nc3ccccc3cc2Cc2ccccc2)cc1 here?
A: The Potency was “inactive”.

Q: For CC(C)(CO)Cc1cc(C(C)(C)C)c(O)c(C(C)(C)C)c1, which Potency is on record?
A: Its Potency is inconclusive: 3.98 µM [inhibitor, full curve].

Q: With Nc1nc(CSC(=S)N2CCOCC2)nc(Nc2ccccc2)n1 as the compound, how does the Potency read?
A: Its Potency is inconclusive: 23.1 µM [inhibitor, partial curve, poor fit].

Q: With Cc1ccc(-c2nnn(CC(=O)NC3CCCc4ccccc43)n2)cc1 (stereo unspecified) as the compound, how does the Potency read?
A: Its Potency is inconclusive: 5.8 µM [inhibitor, full curve].

Q: For COc1ccc(CNC(=O)N2CCN(c3cccc(C)c3C)CC2)cc1OC, which Potency is on record?
A: Its Potency is inconclusive: 7.94 µM [inhibitor, partial curve].

Q: With O=C(CSc1nc(=O)n2ccccc2n1)Nc1cccc2ccccc12 as the compound, how does the Potency read?
A: Its Potency is “inactive”.

Q: With COc1ccccc1CNCc1cc(=O)oc2c(C)c(C)ccc12 as the compound, how does the Potency read?
A: The Potency was inconclusive: 8.91 µM [inhibitor, partial curve, poor fit].
